Positions count from the first letter of the chain named. No constants are given. Whether binding was seen depends on the method and setting. Binding calls can cover weak binding; strength is not graded here.
B1: mAb001 (antibody, V domains shown)
VH: QVQLQQSGPELVKPGASVKISCKASGYSFTNYYMHWVKQRPGQGLEWIGWTYPGNNNIKYNEKFKGKATLTADTSSSTAYMQLSSLTSEDSAVYYCARDGYGYYFFDYWGQGIILTVSS
VL: DIVMSQSPSSLAVSAGEKVTMSCKSSQSLLNNRTRKNYLAWYQQKPGQSPKLLIYWASTRESGVPDRFTGSGSGTDFTLTISSVQAEDLAIYYCKQSYTLRTFGGGTKLAIK
B2: mAb007 (antibody, V domains shown)
VH: QVQLQQSGPELVKPGASVKISCKASGSTFTDNYIHWVKQRPGQGLEWIGWIYPGSVNIKYNEKFKDKATLTADTSSTTAYMQLSSLSSEDSAIYYCARDISRYYFDYWGQGTTLTVSS
VL: B1 VL with K18R, S22N, N32S, I91V, Y98F, T99I

Molecular target: Human CD3e/g protein (human)
Experiment: ELISA, coated hCD3e/g

Binder | binding
B1 | binds
B2 | binds

Source: patent US20250346668A1
